The target in the assay is HA–WDR60 (human) (UniProt Q8WVS4). Put plainly: affinity purification with mass spectrometry; HA–WDR60 on HA–agarose beads from transfected RPE1 WT and CEP170 KO cells, trypsin digest, TMT labelling; abundance against HA–GFP; three independent experiments.

Protein sequences, listed by entry. Tags and fused reporters are not part of them.
UniProt Q8WVS4: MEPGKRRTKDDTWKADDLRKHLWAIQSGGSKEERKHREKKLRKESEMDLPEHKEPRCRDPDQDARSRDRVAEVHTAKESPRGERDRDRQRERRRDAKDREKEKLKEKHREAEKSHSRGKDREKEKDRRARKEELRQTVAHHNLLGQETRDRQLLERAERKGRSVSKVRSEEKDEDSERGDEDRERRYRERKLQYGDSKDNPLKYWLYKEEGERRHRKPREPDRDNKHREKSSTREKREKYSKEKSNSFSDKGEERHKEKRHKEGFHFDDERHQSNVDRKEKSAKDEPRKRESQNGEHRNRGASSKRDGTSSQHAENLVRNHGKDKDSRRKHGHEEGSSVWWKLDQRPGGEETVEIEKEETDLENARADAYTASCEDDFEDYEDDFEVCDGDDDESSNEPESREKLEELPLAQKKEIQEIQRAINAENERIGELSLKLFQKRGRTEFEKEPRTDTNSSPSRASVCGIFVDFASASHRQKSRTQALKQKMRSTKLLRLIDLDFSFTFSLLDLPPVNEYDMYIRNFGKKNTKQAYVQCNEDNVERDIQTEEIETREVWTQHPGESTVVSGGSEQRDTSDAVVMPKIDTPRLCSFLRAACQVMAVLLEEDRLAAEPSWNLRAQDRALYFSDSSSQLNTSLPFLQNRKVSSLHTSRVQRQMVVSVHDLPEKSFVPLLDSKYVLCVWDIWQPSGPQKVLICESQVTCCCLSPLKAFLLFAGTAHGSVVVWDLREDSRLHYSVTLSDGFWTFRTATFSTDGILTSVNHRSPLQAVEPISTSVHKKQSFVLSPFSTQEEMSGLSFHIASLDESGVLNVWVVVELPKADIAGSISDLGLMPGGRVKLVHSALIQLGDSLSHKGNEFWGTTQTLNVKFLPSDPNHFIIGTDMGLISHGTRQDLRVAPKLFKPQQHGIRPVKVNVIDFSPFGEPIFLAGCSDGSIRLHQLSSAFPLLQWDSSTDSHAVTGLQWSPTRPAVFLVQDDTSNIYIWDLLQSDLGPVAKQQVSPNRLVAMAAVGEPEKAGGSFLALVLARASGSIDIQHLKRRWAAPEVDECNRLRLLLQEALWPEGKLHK

Results are given in words; binding and its absence hold for the method and conditions named. In cells and extracts the contact can be indirect. Here binding means that the protein was enriched with, or labelled near, the bait; the list need not be complete.

B1: chaperone NUDCD1 (protein, UniProt Q96RS6 1-583)
chain: MEVAANCSLRVKRPLLDPRFEGYKLSLEPLPCYQLELDAAVAEVKLRDDQYTLEHMHAFGMYNYLHCDSWYQDSVYYIDTLGRIMNLTVMLDTALGKPREVFRLPTDLTACDNRLCASIHFSSSTWVTLSDGTGRLYVIGTGERGNSASEKWEIMFNEELGDPFIIIHSISLLNAEEHSIATLLLRIEKEELDMKGSGFYVSLEWVTISKKNQDNKKYEIIKRDILRGKSVPHYAAIEPDGNGLMIVSYKSLTFVQAGQDLEENMDEDISEKIKEPLYYWQQTEDDLTVTIRLPEDSTKEDIQIQFLPDHINIVLKDHQFLEGKLYSSIDHESSTWIIKESNSLEISLIKKNEGLTWPELVIGDKQGELIRDSAQCAAIAERLMHLTSEELNPNPDKEKPPCNAQELEECDIFFEESSSLCRFDGNTLKTTHVVNLGSNQYLFSVIVDPKEMPCFCLRHDVDALLWQPHSSKQDDMWEHIATFNALGYVQASKRDKKFFACAPNYSYAALCECLRRVFIYRQPAPMSTVLYNRKEGRQVGQVAKQQVASLETNDPILGFQATNERLFVLTTKNLFLIKVNTEN
On to B1, for which the binding result is reported as “binds”.

For the origin of these results see publication PMC11112123.
